These results are taken from article PMC4434885.

By UniProt entry, the sequences of proteins in these tests, tags left out.
UniProt O15131: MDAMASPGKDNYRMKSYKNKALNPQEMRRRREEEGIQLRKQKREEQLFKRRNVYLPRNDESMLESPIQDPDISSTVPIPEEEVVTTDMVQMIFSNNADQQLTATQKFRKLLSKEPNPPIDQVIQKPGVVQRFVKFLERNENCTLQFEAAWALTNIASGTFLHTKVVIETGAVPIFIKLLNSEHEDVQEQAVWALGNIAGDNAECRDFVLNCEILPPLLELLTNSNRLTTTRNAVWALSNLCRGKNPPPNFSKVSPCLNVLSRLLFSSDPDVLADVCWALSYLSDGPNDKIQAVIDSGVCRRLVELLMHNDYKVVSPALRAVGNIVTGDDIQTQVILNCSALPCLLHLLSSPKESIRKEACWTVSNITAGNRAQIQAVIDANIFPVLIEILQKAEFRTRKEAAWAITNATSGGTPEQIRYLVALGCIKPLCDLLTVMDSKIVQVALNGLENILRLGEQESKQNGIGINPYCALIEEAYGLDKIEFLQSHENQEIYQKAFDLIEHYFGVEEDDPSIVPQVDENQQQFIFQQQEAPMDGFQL

Results are given in words; binding and its absence hold for the method and conditions named. Binding calls can cover weak binding; strength is not graded here.

Experiment [1] concerns the target LexA-MSP58 NLS1 mutant (10A) (UniProt Q96EZ8). Nature of the experiment: two-hybrid; directed test in S. cerevisiae L40: LexA-MSP58 constructs (pBTM116) as bait, Gal4 AD-importins (pACT2) as prey; growth without histidine, X-Gal colony assay and quantitative liquid β-galactosidase assay.
Experiment [2] concerns the target LexA-MSP58 NLS2 mutant (5A) (UniProt Q96EZ8). Described as above.

With “Gal4 AD-importin α6 (entire) (from UniProt O15131 1-539)”, the binding entry in experiment [1] and in experiment [2] was “binds” in each case.
